Test results from the supplement of paper PMC11732987, “Enantioselective OTUD7B fragment discovery through chemoproteomics screening and high-throughput optimisation” (Communications Chemistry, 2025).
Some of the results follow. The data scatter; read single values as rough.

Chains of the proteins cited; added tags and fusions are not shown. Where a name states a change or a piece, a line headed by the entry shows the natural chain unless it says otherwise. A line that says so, or that is headed by a name, gives the form on record, which may keep a tag or linker.
UniProt Q12986: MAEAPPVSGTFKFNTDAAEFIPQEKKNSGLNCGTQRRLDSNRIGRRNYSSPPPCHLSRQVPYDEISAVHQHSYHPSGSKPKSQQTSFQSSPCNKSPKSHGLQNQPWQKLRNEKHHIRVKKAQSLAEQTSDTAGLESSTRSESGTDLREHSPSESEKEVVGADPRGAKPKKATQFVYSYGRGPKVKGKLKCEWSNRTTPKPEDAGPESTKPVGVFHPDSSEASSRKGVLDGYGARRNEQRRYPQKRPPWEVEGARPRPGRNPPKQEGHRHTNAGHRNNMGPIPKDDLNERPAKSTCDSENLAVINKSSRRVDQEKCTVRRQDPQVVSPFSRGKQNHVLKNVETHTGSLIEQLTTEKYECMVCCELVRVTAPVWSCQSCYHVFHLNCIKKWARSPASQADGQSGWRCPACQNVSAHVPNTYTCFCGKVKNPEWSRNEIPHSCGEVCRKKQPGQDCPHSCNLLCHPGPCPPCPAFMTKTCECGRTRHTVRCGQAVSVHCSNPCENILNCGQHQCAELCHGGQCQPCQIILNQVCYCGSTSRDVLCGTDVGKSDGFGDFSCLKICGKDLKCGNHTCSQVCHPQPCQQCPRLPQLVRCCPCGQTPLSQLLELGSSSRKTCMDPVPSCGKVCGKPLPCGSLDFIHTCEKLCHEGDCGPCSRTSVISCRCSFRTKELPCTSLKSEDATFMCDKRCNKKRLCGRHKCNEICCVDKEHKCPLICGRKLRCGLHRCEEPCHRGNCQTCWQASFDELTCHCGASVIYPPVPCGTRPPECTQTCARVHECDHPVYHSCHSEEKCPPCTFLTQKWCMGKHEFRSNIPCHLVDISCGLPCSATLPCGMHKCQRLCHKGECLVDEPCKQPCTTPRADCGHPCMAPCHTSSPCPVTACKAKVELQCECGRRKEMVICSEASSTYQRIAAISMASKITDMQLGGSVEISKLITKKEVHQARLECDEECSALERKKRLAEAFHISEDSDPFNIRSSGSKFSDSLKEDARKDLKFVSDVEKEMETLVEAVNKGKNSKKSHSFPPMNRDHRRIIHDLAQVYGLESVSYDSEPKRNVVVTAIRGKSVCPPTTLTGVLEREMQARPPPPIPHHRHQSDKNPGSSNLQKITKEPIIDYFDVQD
UniProt O00567: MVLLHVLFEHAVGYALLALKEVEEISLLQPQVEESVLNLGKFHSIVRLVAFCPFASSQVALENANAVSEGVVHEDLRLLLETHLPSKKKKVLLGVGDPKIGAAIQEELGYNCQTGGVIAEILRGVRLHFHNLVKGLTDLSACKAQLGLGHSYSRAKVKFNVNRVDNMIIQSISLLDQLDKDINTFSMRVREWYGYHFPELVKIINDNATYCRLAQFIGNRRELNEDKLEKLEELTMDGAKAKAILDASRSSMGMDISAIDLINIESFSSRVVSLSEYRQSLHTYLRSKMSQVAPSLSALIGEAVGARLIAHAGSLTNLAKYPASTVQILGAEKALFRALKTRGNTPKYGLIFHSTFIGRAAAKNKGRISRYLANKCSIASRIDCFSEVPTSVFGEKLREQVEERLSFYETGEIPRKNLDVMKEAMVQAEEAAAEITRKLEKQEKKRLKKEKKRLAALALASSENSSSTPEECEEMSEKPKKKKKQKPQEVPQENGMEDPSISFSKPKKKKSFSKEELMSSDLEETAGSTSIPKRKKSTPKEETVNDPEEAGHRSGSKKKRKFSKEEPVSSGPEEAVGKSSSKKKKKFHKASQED
UniProt O43678, whole entry, looked up: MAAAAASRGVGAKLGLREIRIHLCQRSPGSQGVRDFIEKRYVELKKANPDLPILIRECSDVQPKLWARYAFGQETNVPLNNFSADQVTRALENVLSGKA
UniProt P51957: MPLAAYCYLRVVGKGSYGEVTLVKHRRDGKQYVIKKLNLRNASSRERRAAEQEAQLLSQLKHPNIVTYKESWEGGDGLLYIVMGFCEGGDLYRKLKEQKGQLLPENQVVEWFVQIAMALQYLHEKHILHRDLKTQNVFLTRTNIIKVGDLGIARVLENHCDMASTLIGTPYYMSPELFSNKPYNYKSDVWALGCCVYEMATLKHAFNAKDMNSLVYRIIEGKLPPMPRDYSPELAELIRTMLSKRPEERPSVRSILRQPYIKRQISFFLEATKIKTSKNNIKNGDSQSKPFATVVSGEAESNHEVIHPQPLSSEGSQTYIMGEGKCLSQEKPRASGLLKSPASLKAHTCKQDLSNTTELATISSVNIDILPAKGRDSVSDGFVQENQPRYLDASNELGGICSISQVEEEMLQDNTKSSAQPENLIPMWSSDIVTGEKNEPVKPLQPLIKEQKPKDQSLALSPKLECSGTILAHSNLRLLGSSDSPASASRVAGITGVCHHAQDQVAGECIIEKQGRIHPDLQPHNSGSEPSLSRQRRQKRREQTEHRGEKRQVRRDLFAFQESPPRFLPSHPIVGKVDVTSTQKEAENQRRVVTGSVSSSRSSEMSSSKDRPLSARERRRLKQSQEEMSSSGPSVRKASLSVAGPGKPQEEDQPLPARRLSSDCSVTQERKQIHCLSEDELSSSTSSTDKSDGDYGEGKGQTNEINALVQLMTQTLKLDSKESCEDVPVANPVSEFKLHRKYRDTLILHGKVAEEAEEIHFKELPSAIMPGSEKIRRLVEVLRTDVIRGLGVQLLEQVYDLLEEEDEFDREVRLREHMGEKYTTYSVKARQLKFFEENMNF
UniProt P28331: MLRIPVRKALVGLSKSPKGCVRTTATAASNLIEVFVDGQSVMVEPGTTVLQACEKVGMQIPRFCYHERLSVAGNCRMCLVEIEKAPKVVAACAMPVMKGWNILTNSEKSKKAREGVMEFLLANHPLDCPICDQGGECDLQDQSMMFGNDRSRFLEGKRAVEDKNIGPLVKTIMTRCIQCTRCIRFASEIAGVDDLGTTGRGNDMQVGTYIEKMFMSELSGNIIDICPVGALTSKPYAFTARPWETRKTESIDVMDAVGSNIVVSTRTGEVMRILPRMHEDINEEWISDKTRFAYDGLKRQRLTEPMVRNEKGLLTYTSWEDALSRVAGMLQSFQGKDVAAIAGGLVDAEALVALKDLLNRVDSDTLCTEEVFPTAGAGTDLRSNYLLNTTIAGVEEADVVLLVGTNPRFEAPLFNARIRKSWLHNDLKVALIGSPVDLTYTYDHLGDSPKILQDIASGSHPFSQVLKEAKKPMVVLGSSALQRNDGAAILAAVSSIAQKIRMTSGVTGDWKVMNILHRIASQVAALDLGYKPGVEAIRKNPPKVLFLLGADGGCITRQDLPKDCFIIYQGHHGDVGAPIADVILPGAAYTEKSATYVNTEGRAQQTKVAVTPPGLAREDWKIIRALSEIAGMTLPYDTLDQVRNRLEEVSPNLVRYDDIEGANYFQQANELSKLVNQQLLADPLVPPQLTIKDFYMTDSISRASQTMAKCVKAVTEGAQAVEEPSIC
UniProt Q9BSC4: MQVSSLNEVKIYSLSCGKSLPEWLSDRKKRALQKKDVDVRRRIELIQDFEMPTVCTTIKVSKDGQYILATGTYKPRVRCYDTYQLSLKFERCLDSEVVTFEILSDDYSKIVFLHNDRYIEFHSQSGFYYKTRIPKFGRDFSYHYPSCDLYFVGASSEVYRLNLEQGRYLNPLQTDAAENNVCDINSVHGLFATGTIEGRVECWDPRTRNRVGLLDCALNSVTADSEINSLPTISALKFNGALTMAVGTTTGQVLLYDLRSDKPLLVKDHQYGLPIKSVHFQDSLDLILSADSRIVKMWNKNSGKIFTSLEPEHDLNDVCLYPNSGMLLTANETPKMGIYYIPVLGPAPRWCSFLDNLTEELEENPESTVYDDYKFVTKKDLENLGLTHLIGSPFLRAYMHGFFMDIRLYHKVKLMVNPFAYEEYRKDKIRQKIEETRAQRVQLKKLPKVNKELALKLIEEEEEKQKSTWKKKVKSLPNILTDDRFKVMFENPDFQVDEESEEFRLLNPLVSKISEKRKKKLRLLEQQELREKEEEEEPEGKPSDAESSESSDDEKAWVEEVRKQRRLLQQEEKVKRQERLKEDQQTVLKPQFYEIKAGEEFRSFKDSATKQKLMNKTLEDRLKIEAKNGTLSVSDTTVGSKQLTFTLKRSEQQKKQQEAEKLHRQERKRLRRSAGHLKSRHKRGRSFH
UniProt O43639: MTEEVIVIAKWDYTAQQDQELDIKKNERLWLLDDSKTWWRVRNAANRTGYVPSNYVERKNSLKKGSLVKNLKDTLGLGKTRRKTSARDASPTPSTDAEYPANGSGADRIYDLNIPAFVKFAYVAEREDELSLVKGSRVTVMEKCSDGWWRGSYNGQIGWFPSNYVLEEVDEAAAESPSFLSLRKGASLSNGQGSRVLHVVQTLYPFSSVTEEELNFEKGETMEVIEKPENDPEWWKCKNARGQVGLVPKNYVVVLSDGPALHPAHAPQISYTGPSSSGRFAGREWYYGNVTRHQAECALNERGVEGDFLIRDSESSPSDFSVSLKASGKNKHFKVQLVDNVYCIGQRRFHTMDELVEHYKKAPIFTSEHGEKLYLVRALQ
UniProt Q8N4C6: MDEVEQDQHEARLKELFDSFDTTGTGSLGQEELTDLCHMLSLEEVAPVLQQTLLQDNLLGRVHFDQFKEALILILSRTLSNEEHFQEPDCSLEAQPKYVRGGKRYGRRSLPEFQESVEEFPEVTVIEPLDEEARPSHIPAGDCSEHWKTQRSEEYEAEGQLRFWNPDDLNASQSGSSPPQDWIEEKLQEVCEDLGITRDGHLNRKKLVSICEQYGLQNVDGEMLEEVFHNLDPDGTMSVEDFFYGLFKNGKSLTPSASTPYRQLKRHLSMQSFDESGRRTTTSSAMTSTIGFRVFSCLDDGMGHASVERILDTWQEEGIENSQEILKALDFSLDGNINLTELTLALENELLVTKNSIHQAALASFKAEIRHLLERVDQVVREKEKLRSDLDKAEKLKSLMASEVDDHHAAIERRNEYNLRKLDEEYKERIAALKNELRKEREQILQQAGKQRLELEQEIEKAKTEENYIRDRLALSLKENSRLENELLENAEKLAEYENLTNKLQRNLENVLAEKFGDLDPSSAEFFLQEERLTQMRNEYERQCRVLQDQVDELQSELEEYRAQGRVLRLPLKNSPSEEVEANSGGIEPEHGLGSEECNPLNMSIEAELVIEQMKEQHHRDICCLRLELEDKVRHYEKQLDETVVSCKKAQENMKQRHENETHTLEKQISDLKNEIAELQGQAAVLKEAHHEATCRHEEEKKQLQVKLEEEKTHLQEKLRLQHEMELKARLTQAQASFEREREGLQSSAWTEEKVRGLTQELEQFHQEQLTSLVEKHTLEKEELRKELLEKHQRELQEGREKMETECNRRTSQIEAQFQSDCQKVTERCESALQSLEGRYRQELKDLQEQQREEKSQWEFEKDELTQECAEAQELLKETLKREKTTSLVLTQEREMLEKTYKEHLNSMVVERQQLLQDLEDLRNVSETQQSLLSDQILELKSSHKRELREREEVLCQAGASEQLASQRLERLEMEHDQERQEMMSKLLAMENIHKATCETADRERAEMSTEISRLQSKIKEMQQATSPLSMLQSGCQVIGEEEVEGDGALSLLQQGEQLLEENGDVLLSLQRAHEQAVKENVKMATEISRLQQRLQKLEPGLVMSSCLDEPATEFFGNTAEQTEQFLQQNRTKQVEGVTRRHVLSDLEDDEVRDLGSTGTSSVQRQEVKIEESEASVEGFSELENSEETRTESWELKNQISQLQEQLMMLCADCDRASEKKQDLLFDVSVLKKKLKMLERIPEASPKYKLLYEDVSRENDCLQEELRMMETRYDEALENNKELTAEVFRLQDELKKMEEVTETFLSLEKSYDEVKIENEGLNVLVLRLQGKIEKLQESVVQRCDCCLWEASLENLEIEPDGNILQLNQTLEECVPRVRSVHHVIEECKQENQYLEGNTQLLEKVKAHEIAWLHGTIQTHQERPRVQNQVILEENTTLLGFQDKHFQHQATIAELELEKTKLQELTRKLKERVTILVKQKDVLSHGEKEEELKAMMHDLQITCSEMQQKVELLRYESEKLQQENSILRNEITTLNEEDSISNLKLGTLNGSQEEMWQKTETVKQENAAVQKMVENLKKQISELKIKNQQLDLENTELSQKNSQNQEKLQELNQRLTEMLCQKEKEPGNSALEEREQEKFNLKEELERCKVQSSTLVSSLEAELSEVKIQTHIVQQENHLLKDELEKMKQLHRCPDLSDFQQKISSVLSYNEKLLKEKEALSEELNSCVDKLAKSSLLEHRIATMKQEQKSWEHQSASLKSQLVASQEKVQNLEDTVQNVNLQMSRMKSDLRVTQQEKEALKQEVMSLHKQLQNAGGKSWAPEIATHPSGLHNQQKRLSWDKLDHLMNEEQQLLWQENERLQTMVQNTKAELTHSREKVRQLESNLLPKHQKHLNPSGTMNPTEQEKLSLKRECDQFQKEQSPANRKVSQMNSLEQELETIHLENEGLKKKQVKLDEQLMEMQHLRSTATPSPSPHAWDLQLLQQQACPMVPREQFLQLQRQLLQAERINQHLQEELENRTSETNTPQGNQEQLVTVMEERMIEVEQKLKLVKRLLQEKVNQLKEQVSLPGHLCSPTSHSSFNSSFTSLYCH
NDRG2_(C255,C255,C274,C274), as listed by the source: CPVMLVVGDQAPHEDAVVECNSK

Legend:
[1] = compound: ClCC(=O)N[C@@H]1CCCc2ccccc12; experiment: log2 mean competition ratio of IA-DTB cysteine labelling (DMSO/compound) (log2 ratio); higher = stronger cysteine engagement by compound; details: treatment time: 4 h, cell line lysate: HEK293T
Procedure: (§1)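 IA-DTB competitive cysteine chemoproteomics in HEK293T RIPA lysate. Lysates were treated with compound 29 or 30 at 50 or 200 µM for 4 h, then IA-DTB (500 µM, 1 h), trypsin-digested, NeutrAvidin-enriched and analysed by diaPASEF. Competition ratio = intensity DMSO / intensity compound (n=4 treated, n=64 DMSO); binding: mean log2 CR ≥ 1 and p ≤ 0.05 plus QC filters. Target is the cysteine site.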

[2] = compound: ClCC(=O)N[C@H]1CCCc2ccccc12; experiment: as above; details: treatment time: 4 h, cell line lysate: HEK293T
Procedure: as §1

Row | Target | log2 mean competition ratio ([1]; 50 µM) | log2 mean competition ratio ([1]; 200 µM) | log2 mean competition ratio ([2]; 200 µM) | log2 mean competition ratio ([2]; 50 µM)
1 | NELFB C141 (UniProt Q8WX92) | -0.23 | -0.419 | -0.432 | –
2 | NFX1 C684 (UniProt Q12986) | -0.118 | 0.09 | 0.119 | -0.106
3 | NFX1 C92 (UniProt Q12986) | 0.139 | 0.248 | 0.262 | 0.0326
4 | NBEA C457 (UniProt Q8NFP9) | -0.14 | -0.108 | -0.09 | -0.706
5 | NOMO3;NOMO2 C627;(C627) | 0.185 | -0.0245 | -0.359 | -0.479
6 | NEK9 C506 (UniProt Q8TD19) | -0.0184 | 0.031 | 0.1 | -0.0742
7 | NOP56 C142 (UniProt O00567) | -0.0845 | -0.171 | 0.0065 | 0.383
8 | NKTR C964 (UniProt P30414) | -0.314 | 0.579 | -0.209 | -0.0481
9 | NME7 C228 (UniProt Q9Y5B8) | -0.266 | 0.0788 | 0.218 | -0.121
10 | NOA1 C505 (UniProt Q8NC60) | 0.261 | 0.252 | 0.0984 | 0.246
11 | NDUFA2 C58 (UniProt O43678) | -0.118 | 0.0235 | 0.0971 | 0.308
12 | NBEA C369 (UniProt Q8NFP9) | 0.0559 | -0.342 | -0.497 | 0.2
13 | NEK4 C466 (UniProt P51957) | 0.11 | 0.00587 | 0.264 | 0.168
14 | NOL6 C486 (UniProt Q9H6R4) | 0.411 | -0.731 | -0.477 | 0.112
15 | NDRG2_(C255,C255,C274,C274) | -0.589 | -0.00655 | 0.206 | 0.222
16 | NCDN C158 (UniProt Q9UBB6) | -0.443 | 0.136 | -0.0731 | -0.00768
17 | NDUFS1 C727 (UniProt P28331) | -0.351 | -0.0831 | 0.297 | -0.184
18 | NCAPH C239 (UniProt Q15003) | -0.117 | -9.36e-05 | 0.113 | -0.199
19 | NDUFB10 C119 (UniProt O96000) | 0.125 | 0.311 | 0.404 | 0.0177
20 | NOA1 C272 (UniProt Q8NC60) | -0.0586 | 0.027 | 0.248 | 0.00304
21 | NAV1 C1508 (UniProt Q8NEY1) | -0.161 | 0.119 | 0.147 | 0.0705
22 | NEK4 C724 (UniProt P51957) | -0.273 | -0.018 | -0.188 | 0.276

Full records from above. Values in the order: log2 mean competition ratio ([1]; 50 µM) | log2 mean competition ratio ([1]; 200 µM) | log2 mean competition ratio ([2]; 200 µM) | log2 mean competition ratio ([2]; 50 µM)
NEK9 C506 (UniProt Q8TD19) in the list: -0.0184 | 0.031 | 0.1 | -0.0742
NOP56 C142 (UniProt O00567) in the list: -0.0845 | -0.171 | 0.0065 | 0.383

Further entries.

Row | Target | log2 mean competition ratio ([1]; 50 µM) | log2 mean competition ratio ([1]; 200 µM) | log2 mean competition ratio ([2]; 200 µM) | log2 mean competition ratio ([2]; 50 µM)
23 | NOP2 C463 (UniProt P46087) | -0.0718 | 0.00349 | -0.00891 | -0.27
24 | NCDN C725 (UniProt Q9UBB6) | -0.0958 | 0.213 | 0.368 | -0.438
25 | NNT C936 (UniProt Q13423) | 0.1 | -0.182 | -0.0798 | 0.136
26 | NEURL4 C1324 (UniProt Q96JN8) | -0.0319 | -0.435 | -0.271 | 0.0966
27 | NEK1 C1051 (UniProt Q96PY6) | 0.0614 | 0.178 | 0.214 | 0.0659
28 | NEK4 C326 (UniProt P51957) | 0.0499 | -0.108 | -0.146 | 0.0386
29 | NFX1 C295 (UniProt Q12986) | 0.0212 | 0.0765 | 0.0757 | -0.176
30 | NKRF C424 (UniProt O15226) | 0.225 | -0.107 | -0.224 | 0.128
31 | NOL10 C202 (UniProt Q9BSC4) | -0.158 | -0.237 | -0.094 | 0.255
32 | NASP C254 (UniProt P49321) | -0.167 | 0.0842 | 0.187 | -0.0969
33 | NES C157 (UniProt P48681) | 0.664 | 0.159 | 0.0658 | 0.39
34 | NIBAN1 C409 (UniProt Q9BZQ8) | -0.074 | -0.0392 | 0.0437 | 0.121
35 | NFKB2 C4 (UniProt Q00653) | 0.0884 | -0.605 | -0.0439 | 0.0676
36 | NCAPG2 C184 (UniProt Q86XI2) | 0.04 | 0.31 | 0.395 | -0.0543
37 | NAT10 C105 (UniProt Q9H0A0) | 0.325 | -0.14 | -0.251 | 0.0975
38 | NOP14 C457 (UniProt P78316) | 0.322 | -0.556 | -0.529 | 0.175
39 | NCK2 C343 (UniProt O43639) | -0.0607 | -0.189 | -0.403 | -0.428
40 | NOP10 C28 (UniProt Q9NPE3) | 0.371 | -0.343 | 0.157 | 0.24
41 | NOL8 C578 (UniProt Q76FK4) | 0.139 | 0.0066 | 0.116 | 0.583
42 | NIN C1912 (UniProt Q8N4C6) | -0.213 | 0.157 | 0.183 | -0.214
43 | NCOR1 C2322 (UniProt O75376) | 0.421 | -0.315 | -0.387 | 0.478
